This data set has as its system mutated human CRTH2 with amino acid substitution. Description: Epitope analysis using CHO-S cells which express mutated human CRTH2 with amino acid substitution. Type of data set: binding. As to conditions: concluded from mutant reactivity. As for the experimental part:
A mutant with amino acid substitution expression vector obtained by partially substituting amino acid residues in an extracellular region with other amino acid residues among the amino acid sequences of human CRTH2 was prepared. Specifically, mutant with amino acid substitution expression vectors obtained by substitution of S2A; N4A; T6A and L7A; K8A, P9A, and L10A; P12A, L14A, and EISA; Q16E, R19H, and Q21R; H23A, S24A, and N25A; T26A, S27A, and I28A; D171A, T172A, and I173A; S174A, R175A, and L176A; D177A, G178A, and R179A; 1180A and M181A; Y183A, Y184A, and N185A; L187A, L188A, and L189A; N190A; P191A; G192A; P193A; D194A; R195A; D196A, and T198A; N275A, G277A, and L278A; P276A; P279A and L281A; P280A; or V282A, R283A, and R284A in the amino acid sequences represented by SEQ ID NO: 2 were respectively prepared. It should be noted that the above symbols in the amino acid substitution indicate [single letter code of an amino acid residue before substitution] [substitution position counting from the N terminal] [single letter code of the amino acid reside after substitution]. […]
After the reaction, the cells were washed and suspended with SM, and the fluorescent intensity was analyzed by flow cytometry (BD Biosciences, FACS CantoII). […]

Where a chain is given by its changes, count along the chain named.

B1: chLym2: rat/human chimeric Lym2 antibody, Lym2 variable regions with human IgG1 and κ constant regions (antibody, V domains shown)
VH: EVQLVESGGGLVQPGRSMKLSCAASGFTFSNYYMAWVRQAPKKGLEWVATISYDGSSTYYRDSVKGRFTISRDNAKSTLYLQMDSLRSEDTATYYCARHRGYYYSGAGYFDYWGQGVMVTVSS
VL: DVVLTQTPVSLSVTLGDQASISCRSSQSLEYSDGYTYLEWYLQKPGQSPQVLIYGVSNRFSGVPDRFIGSGSGTDFTLKISRVEPEDLGVYYCFQATHDPLTFGSGTKLEIK
Take B1: the “epitope recognized on human CRTH2” value is “bind to the same epitope”.

B2: LV1HV0: humanized Lym2 antibody, VL LV1 (SEQ ID NO: 35), VH HV0 (SEQ ID NO: 49) (antibody, V domains shown)
VH: B1 VH with L11V, M18L, K19R, K42G, S77N, T78S, D84N, S88A, T93V, V117T
VL: B1 VL with V2I, L4M, V9L, S12P, D17E, Q18S, I68S, P85A, L88V, S105Q
Consider B2, for which the “epitope recognized on human CRTH2” value is listed as “bind to the same epitope”.

The values above are taken from patent US10100120B2, “Antibody which specifically binds to human CRTH2” (KYOWA HAKKO KIRIN CO., LTD, priority 2015, dated 2018).
